# Results taken from the supplement of paper PMC4604168 (melanoma cell lines).
# The list shows a part of the results. Repeats are few or missing, and single values can be far off.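 Imaging used 1,536-well plates; nuclei positive for cleaved PARP by antibody were divided by total DNA-stained nuclei to yield the apoptosis fraction. Doses for screening kept most cells viable, and cell lines differ markedly in resting and induced cleaved-PARP levels.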
# Assays:
# Assay in all cases: cleaved PARP positive nuclei fraction relative to DMSO control; melanoma cells; higher = more apoptosis
# Conditions in all cases: library dose: low library concentration; 72 h
# [1] = tested on: MZ2-MEL
# [2] = tested on: MeWo
# [3] = tested on: RPMI7951
# [4] = tested on: RVH-421
# [5] = tested on: SkMel28
# [6] = tested on: SkMel30
# [7] = tested on: SkMel5
# [8] = tested on: UACC257
# [9] = tested on: UACC62
# [10] = tested on: WM115
# [11] = tested on: WM1716
# [12] = tested on: WM1745
# [13] = tested on: WM3526
# [14] = tested on: WM3619
# [15] = tested on: WM451Lu
SMILES,cleaved PARP positive nuclei fraction [1] [%],cleaved PARP positive nuclei fraction [2] [%],cleaved PARP positive nuclei fraction [3] [%],cleaved PARP positive nuclei fraction [4] [%],cleaved PARP positive nuclei fraction [5] [%],cleaved PARP positive nuclei fraction [6] [%],cleaved PARP positive nuclei fraction [7] [%],cleaved PARP positive nuclei fraction [8] [%],cleaved PARP positive nuclei fraction [9] [%],cleaved PARP positive nuclei fraction [10] [%],cleaved PARP positive nuclei fraction [11] [%],cleaved PARP positive nuclei fraction [12] [%],cleaved PARP positive nuclei fraction [13] [%],cleaved PARP positive nuclei fraction [14] [%],cleaved PARP positive nuclei fraction [15] [%]
"O=C(CCCCCCC(=O)Nc1ccccc1)NO [vorinostat] + Oc1cc(-c2nc(-c3ccccc3)[nH]c2-c2ccncc2)ccc1Cl [L779450] (first compound 0.08 µM, partner dose 0.2 µM)",250,101,85,92.4,203,61.6,122,128,52.8,135,92.7,86.9,103,107,56
"O=C(CCCCCCC(=O)Nc1ccccc1)NO [vorinostat] + COC(=O)c1sccc1S(=O)(=O)Nc1ccc(Nc2ccccc2)cc1OC [GSK0660] (first compound 0.08 µM, partner dose 1 µM)",59.5,201,91.3,72.9,189,25.5,80.9,32.8,88.2,77.8,117,93.9,70,72.8,130
"Cn1nnc2c(C(N)=O)ncn2c1=O [temozolomide] + CCCCCCCCCCCC1=C(O)C(=O)C=C(O)C1=O [Embelin] (first compound 2 µM, partner dose 1.2 µM)",40.3,102,77.9,132,129,60.1,138,67.1,92.2,93.3,147,120,71.4,88.3,27.4
"CC1(C)NC(=O)N(c2ccc([N+](=O)[O-])c(C(F)(F)F)c2)C1=O [nilutamide] + c1cc(-c2cnn3cc(-c4ccc(OCCN5CCCCC5)cc4)cnc23)ccn1 [Dorsomorphin] (first compound 1 µM, partner dose 0.4 µM)",89,143,42.1,56.5,88.8,53.2,132,77.2,73.9,140,108,106,60.2,171,136
"Cn1c(Nc2ccc(C(F)(F)F)cc2)nc2cc(Oc3ccnc(-c4ncc(C(F)(F)F)[nH]4)c3)ccc21 + CCc1ccc(CCOc2ccc(CC3SC(=O)NC3=O)cc2)nc1 [pioglitazone] (first compound 0.08 µM, partner dose 2 µM)",73.4,73.2,30.8,108,251,84.4,39.6,954,154,404,172,150,310,106,240
"CO[C@@H]1[C@H](N(C)C(=O)c2ccccc2)C[C@H]2O[C@]1(C)n1c3ccccc3c3c4c(c5c6ccccc6n2c5c31)C(=O)NC4 [Midostaurin] + Cc1cc([N+](=O)[O-])ccc1NS(=O)(=O)c1cc(Cl)ccc1Cl [FH535] (first compound 0.08 µM, partner dose 1 µM)",123,33.3,50.5,137,181,59.8,73.5,81.5,111,119,69.4,130,203,58.2,765
"CO[C@@H]1[C@H](N(C)C(=O)c2ccccc2)C[C@H]2O[C@]1(C)n1c3ccccc3c3c4c(c5c6ccccc6n2c5c31)C(=O)NC4 [Midostaurin] + CC(C)CCN1c2nc(Nc3cc(F)c(O)c(F)c3)ncc2N(C)C(=O)C1C [BID1870] (first compound 0.08 µM, partner dose 0.2 µM)",100,262,48,59.1,128,28.4,68.8,135,42.2,204,115,123,34.7,115,43.4
"C[C@]1(c2nc3c(C(N)=O)cccc3[nH]2)CCCN1 [Veliparib] + Cn1cc(/C=C2\C(=O)Nc3cccnc32)c2ccccc21 [GW441756] (first compound 1.4 µM, partner dose 0.4 µM)",92.2,55.3,112,153,150,27.4,67.2,59.6,64.4,72.6,104,108,72.6,59.9,90.5
"C[C@]1(c2nc3c(C(N)=O)cccc3[nH]2)CCCN1 [Veliparib] + O=C1NC(=O)/C(=C/c2ccc(-c3ccc(F)cc3O)o2)S1 [AS252424] (first compound 1.4 µM, partner dose 1 µM)",94.6,114,277,93.2,38.5,55,56,72.9,112,54.8,114,109,72.8,92.2,132
"Cc1nc(Nc2ncc(C(=O)Nc3c(C)cccc3Cl)s2)cc(N2CCN(CCO)CC2)n1 [dasatanib] + CCCCCCCCCCCC1=C(O)C(=O)C=C(O)C1=O [Embelin] (first compound 0.004 µM, partner dose 1.2 µM)",212,39.3,64.6,139,158,35.8,31,87,38.1,110,84.1,158,36.7,83,99.3
"COc1cc(Nc2ncc(F)c(Nc3ccc4c(n3)NC(=O)C(C)(C)O4)n2)cc(OC)c1OC [Tamatinib] + CCN(CC)CCCCNc1ncc2cc(-c3cc(OC)cc(OC)c3)c(NC(=O)NC(C)(C)C)nc2n1 [PD173074] (first compound 0.4 µM, partner dose 0.1 µM)",171,110,27.5,96.9,153,17.4,97.9,194,181,142,85.5,154,42.6,106,99.7
"Cn1c(Nc2ccc(C(F)(F)F)cc2)nc2cc(Oc3ccnc(-c4ncc(C(F)(F)F)[nH]4)c3)ccc21 + O=c1cc(-c2cccc3c2Sc2ccccc2S3)oc(N2CCOCC2)c1 [KU55933] (first compound 0.08 µM, partner dose 1 µM)",173,80.8,79.7,77.4,261,21.3,35.8,671,75.1,1230,132,147,146,119,79.5
"CC1(C)NC(=O)N(c2ccc([N+](=O)[O-])c(C(F)(F)F)c2)C1=O [nilutamide] + N#Cc1c(O)c2c(-c3ccc(-c4ccccc4O)cc3)csc2[nH]c1=O [A769662] (first compound 1 µM, partner dose 2 µM)",22.1,49.9,221,74.8,141,180,81.8,105,93.5,89.4,136,102,66.6,71.8,114
"Nc1cccc2c1CN(C1CCC(=O)NC1=O)C2=O (stereo not given) [lenalidomide] + COc1cc2ncnc(Nc3ccc(Oc4ccccc4)cc3)c2cc1OC [SrcI1] (first compound 1 µM, partner dose 2 µM)",43.1,207,190,53.5,144,37.4,130,140,75.4,102,38.7,108,240,71,52.3
"O=C(CCCCCCC(=O)Nc1ccccc1)NO [vorinostat] + N#Cc1c(O)c2c(-c3ccc(-c4ccccc4O)cc3)csc2[nH]c1=O [A769662] (first compound 0.08 µM, partner dose 2 µM)",152,54,205,62,201,42.4,29.7,81.2,48.6,69.7,56.7,100,67.3,78.8,58.9
"CC1(C)NC(=O)N(c2ccc([N+](=O)[O-])c(C(F)(F)F)c2)C1=O [nilutamide] + COc1ccc(-c2ccc3c(N4CCOCC4)nc(N4C[C@@H](C)O[C@@H](C)C4)nc3n2)cc1CO [KU0063794] (first compound 1 µM, partner dose 0.02 µM)",107,96.6,83.4,58,108,20.4,35,81.6,50.2,41.4,84.4,100,131,78.4,47.9
"COc1cc(Nc2ncc(F)c(Nc3ccc4c(n3)NC(=O)C(C)(C)O4)n2)cc(OC)c1OC [Tamatinib] + COc1ccc(COc2ccc(Cc3cnc(N)nc3N)cc2OC)cc1 [GW2580] (first compound 0.4 µM, partner dose 1 µM)",161,37.9,46.6,109,130,96.9,147,109,40,84.9,45.4,154,81.4,85.6,58.1
"Cc1ccc(NC(=O)c2cccc(N(C)C)c2)cc1NC(=O)c1ccc(O)cc1 + O=c1cc(-c2cccc3c2Sc2ccccc2S3)oc(N2CCOCC2)c1 [KU55933] (first compound 2 µM, partner dose 1 µM)",105,67.1,108,54.3,148,106,85.4,63.7,44,83.7,52.9,105,74.2,87.6,78.2
"Cc1cc(N2CCOCC2)cc2[nH]c(-c3c(NC[C@@H](O)c4cccc(Cl)c4)cc[nH]c3=O)nc12 + Cc1cc([N+](=O)[O-])ccc1NS(=O)(=O)c1cc(Cl)ccc1Cl [FH535] (first compound 0.2 µM, partner dose 1 µM)",117,163,81.5,125,98.2,215,34.5,281,223,49,58.4,165,63.5,94.2,257
"Nc1cccc2c1CN(C1CCC(=O)NC1=O)C2=O (stereo not given) [lenalidomide] + CCc1ccc(CCOc2ccc(CC3SC(=O)NC3=O)cc2)nc1 [pioglitazone] (first compound 1 µM, partner dose 2 µM)",207,107,77.2,41.4,107,75.8,70.2,55.4,79.1,92.9,95.2,108,77.4,91.9,296

# A second format for part of the listing above.
SMILES	cleaved PARP positive nuclei fraction [1] [%]	cleaved PARP positive nuclei fraction [2] [%]	cleaved PARP positive nuclei fraction [3] [%]	cleaved PARP positive nuclei fraction [4] [%]	cleaved PARP positive nuclei fraction [5] [%]	cleaved PARP positive nuclei fraction [6] [%]	cleaved PARP positive nuclei fraction [7] [%]	cleaved PARP positive nuclei fraction [8] [%]	cleaved PARP positive nuclei fraction [9] [%]	cleaved PARP positive nuclei fraction [10] [%]	cleaved PARP positive nuclei fraction [11] [%]	cleaved PARP positive nuclei fraction [12] [%]	cleaved PARP positive nuclei fraction [13] [%]	cleaved PARP positive nuclei fraction [14] [%]	cleaved PARP positive nuclei fraction [15] [%]
Nc1cccc2c1CN(C1CCC(=O)NC1=O)C2=O (stereo not given) [lenalidomide] + COc1cc2ncnc(Nc3ccc(Oc4ccccc4)cc3)c2cc1OC [SrcI1] (first compound 1 µM, partner dose 2 µM)	43.1	207	190	53.5	144	37.4	130	140	75.4	102	38.7	108	240	71	52.3
O=C(CCCCCCC(=O)Nc1ccccc1)NO [vorinostat] + N#Cc1c(O)c2c(-c3ccc(-c4ccccc4O)cc3)csc2[nH]c1=O [A769662] (first compound 0.08 µM, partner dose 2 µM)	152	54	205	62	201	42.4	29.7	81.2	48.6	69.7	56.7	100	67.3	78.8	58.9
